Test results published in article PMC10242988.
No constants are given. Whether binding was seen depends on the method and setting. In cells and extracts the contact can be indirect. Some results given as binding are weak or reduced against the parent protein; the word gives no strength.

The chains behind the UniProt entries cited, without tags or fusion partners.
UniProt O43581: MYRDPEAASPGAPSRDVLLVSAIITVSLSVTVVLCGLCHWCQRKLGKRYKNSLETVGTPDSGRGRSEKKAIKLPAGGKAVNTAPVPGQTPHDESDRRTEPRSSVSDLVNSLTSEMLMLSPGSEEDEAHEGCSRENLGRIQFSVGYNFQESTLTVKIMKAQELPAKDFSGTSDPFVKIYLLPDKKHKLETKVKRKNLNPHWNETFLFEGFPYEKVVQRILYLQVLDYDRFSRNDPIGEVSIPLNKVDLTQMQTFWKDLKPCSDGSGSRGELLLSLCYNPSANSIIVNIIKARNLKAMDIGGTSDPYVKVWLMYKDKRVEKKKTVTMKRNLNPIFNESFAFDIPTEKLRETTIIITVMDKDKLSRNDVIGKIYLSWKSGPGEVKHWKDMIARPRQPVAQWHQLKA
UniProt Q86TM6: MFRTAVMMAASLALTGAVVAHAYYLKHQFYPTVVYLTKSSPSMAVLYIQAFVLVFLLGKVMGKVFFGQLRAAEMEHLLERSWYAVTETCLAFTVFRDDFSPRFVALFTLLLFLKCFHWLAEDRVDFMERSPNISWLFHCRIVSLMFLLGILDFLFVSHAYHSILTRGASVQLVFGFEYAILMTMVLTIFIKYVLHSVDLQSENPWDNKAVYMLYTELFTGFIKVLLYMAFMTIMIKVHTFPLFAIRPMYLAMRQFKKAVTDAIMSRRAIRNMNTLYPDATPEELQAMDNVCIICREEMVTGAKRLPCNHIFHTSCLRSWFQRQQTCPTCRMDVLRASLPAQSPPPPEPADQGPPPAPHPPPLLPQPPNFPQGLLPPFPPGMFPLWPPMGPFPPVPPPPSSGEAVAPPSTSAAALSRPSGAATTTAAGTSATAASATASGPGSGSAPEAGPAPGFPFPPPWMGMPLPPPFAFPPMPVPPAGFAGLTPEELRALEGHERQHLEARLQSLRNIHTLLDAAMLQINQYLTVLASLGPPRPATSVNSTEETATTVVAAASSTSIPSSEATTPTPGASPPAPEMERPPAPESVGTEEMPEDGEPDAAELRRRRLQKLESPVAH

Biological target: Synaptotagmin 7 (SYT7) (human) (UniProt O43581)
Experiment: co-IP; 1.0-1.2 mg total protein in lysis buffer incubated with anti-KNTC1 or anti-SYT7 antibodies at 4 °C overnight, magnetic beads 2 h at 4 °C, SDS-PAGE and blot

In the case of SYVN1 (from UniProt Q86TM6 1-617), the binding is reported as “binds”.
